The results in this text go back to the supplement of paper PMC10849652.

By UniProt entry, the sequences of proteins in these tests, tags left out. Where a name states a change or a piece, a line headed by the entry shows the natural chain unless it says otherwise.
UniProt P56962: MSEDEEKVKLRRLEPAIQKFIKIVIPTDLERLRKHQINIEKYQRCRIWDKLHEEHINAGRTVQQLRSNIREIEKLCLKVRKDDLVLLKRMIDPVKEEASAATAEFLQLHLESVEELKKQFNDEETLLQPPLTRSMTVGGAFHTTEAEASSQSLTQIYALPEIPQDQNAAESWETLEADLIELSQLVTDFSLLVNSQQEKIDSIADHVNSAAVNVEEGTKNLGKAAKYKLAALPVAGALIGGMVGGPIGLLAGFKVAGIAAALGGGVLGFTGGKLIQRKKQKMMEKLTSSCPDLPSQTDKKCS
UniProt Q96A49: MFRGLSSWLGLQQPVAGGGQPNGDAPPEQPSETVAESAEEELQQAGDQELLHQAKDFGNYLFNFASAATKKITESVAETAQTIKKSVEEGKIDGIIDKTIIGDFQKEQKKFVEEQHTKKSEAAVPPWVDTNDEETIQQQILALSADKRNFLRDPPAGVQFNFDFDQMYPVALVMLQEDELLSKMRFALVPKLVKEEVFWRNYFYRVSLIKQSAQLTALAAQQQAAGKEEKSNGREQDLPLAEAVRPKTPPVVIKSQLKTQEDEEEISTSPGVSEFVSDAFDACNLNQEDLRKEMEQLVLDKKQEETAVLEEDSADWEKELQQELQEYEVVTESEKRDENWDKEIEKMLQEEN
UniProt P17542, whole entry, looked up: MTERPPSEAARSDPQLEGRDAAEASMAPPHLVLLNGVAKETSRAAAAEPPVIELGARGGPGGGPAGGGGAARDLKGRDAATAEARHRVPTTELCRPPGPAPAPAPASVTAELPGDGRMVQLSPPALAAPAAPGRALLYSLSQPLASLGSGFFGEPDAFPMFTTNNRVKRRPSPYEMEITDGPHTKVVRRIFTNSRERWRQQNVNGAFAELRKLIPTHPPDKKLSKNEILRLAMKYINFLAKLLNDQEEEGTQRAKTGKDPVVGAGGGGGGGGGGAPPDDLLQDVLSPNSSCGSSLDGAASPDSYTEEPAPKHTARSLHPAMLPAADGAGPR
UniProt Q8IYB8: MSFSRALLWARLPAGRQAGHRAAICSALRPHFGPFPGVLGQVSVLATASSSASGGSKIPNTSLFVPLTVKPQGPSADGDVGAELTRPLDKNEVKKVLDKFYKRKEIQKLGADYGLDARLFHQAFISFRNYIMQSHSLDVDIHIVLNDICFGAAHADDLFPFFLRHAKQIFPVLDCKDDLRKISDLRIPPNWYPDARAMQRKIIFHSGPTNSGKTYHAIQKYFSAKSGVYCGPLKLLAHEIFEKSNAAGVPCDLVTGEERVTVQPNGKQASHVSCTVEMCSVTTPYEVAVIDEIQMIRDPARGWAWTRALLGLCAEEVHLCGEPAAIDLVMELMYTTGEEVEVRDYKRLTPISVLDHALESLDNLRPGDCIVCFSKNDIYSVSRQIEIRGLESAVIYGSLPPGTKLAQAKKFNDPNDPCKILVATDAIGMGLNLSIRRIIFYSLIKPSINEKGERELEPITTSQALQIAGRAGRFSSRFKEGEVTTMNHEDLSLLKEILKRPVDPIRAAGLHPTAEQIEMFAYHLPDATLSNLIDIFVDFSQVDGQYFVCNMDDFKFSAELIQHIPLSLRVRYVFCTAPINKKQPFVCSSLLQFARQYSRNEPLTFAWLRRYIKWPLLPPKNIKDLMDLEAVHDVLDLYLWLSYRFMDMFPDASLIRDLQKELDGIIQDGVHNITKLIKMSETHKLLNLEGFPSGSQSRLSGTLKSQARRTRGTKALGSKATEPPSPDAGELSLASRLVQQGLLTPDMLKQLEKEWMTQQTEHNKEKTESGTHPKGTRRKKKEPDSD
UniProt Q4KMP7: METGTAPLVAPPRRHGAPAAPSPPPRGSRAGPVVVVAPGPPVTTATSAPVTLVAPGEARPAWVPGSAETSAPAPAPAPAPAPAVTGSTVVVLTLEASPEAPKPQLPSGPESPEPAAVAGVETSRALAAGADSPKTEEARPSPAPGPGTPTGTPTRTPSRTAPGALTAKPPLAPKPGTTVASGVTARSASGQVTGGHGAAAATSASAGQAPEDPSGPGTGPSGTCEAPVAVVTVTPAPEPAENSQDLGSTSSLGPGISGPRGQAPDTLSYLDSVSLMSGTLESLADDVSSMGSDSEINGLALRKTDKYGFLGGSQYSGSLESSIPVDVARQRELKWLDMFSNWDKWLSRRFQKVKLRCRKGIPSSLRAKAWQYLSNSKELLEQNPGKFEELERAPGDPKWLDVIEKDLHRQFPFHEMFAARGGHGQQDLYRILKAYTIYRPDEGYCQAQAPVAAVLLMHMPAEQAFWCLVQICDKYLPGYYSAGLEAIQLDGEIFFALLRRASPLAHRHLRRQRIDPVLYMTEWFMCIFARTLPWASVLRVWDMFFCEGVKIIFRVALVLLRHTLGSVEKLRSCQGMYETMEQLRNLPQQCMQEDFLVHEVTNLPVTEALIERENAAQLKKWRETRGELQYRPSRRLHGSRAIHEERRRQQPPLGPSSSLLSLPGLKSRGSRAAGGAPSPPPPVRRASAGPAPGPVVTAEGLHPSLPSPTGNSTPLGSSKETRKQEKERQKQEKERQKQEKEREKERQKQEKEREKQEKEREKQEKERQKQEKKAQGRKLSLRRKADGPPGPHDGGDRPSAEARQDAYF
UniProt Q15633: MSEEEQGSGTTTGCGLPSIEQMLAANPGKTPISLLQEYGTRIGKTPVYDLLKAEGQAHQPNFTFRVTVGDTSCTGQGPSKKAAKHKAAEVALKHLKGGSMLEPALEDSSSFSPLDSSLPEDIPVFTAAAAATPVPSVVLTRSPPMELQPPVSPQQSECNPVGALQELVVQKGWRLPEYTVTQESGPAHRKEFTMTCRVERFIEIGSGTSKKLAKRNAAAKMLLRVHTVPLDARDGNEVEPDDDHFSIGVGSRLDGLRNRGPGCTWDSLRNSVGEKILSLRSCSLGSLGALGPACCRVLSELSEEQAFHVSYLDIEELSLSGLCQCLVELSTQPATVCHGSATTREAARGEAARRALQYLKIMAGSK
UniProt Q17R31: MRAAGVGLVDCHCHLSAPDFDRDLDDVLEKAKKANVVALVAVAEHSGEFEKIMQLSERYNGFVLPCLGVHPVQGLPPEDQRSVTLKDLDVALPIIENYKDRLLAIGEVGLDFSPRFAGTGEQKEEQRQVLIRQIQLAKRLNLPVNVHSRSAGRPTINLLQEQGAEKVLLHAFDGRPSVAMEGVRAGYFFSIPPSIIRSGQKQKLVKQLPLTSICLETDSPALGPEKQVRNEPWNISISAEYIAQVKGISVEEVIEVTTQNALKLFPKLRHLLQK
UniProt Q8NHG7: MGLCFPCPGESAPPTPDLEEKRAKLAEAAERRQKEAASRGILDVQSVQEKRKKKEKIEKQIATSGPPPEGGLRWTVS
UniProt Q5VSL9: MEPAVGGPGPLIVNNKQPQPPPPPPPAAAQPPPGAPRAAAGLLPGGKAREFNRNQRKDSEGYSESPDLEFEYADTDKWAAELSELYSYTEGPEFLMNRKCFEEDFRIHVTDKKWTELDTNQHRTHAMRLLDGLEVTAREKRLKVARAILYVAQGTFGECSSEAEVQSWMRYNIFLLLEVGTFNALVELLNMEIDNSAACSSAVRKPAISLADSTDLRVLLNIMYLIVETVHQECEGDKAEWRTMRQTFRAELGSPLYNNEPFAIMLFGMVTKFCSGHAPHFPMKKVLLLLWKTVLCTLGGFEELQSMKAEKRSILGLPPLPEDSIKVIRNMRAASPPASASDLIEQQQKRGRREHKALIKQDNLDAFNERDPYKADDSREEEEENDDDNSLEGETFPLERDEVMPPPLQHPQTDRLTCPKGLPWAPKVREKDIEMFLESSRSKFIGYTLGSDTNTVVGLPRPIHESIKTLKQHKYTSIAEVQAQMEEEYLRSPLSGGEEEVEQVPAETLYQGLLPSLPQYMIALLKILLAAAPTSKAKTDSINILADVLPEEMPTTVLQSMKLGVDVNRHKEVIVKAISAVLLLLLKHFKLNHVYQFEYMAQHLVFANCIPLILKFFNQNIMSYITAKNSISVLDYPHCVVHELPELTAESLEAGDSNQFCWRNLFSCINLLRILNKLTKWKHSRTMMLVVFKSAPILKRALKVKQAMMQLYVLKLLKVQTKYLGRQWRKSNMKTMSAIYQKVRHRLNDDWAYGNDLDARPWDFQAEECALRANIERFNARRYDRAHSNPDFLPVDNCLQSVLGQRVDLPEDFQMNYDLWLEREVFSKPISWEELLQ
UniProt Q15208: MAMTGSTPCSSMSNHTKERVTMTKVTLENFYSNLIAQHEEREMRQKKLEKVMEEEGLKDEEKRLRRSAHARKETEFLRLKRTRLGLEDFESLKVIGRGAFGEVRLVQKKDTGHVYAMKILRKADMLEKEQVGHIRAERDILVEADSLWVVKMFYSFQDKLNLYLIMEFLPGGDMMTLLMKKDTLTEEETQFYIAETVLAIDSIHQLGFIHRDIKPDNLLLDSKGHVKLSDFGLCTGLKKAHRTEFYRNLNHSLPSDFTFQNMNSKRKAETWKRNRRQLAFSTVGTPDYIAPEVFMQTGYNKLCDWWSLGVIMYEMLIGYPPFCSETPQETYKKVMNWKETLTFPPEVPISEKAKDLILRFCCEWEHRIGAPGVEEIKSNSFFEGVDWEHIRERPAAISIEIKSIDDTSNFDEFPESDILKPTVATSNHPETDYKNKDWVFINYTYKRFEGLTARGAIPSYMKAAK
UniProt O75410: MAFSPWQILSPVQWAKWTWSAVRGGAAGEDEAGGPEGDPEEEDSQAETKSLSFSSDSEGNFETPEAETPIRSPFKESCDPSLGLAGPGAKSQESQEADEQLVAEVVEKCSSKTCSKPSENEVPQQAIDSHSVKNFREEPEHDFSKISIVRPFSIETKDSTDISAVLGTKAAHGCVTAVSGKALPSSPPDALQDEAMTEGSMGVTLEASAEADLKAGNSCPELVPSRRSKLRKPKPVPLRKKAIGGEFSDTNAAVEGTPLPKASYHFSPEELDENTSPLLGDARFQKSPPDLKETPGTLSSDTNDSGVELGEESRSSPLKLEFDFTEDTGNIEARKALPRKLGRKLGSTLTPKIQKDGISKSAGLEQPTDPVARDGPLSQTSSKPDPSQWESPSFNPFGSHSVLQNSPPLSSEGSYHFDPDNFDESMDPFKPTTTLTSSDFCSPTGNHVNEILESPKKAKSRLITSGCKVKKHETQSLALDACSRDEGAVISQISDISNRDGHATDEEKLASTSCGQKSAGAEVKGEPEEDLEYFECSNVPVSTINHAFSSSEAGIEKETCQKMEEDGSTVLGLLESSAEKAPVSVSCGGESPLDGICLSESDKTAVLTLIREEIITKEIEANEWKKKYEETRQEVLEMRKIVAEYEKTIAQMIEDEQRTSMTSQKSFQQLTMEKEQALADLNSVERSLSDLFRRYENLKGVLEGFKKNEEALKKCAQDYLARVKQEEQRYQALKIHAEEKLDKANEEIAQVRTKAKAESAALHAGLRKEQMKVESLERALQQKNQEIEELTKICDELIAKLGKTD
UniProt O60506: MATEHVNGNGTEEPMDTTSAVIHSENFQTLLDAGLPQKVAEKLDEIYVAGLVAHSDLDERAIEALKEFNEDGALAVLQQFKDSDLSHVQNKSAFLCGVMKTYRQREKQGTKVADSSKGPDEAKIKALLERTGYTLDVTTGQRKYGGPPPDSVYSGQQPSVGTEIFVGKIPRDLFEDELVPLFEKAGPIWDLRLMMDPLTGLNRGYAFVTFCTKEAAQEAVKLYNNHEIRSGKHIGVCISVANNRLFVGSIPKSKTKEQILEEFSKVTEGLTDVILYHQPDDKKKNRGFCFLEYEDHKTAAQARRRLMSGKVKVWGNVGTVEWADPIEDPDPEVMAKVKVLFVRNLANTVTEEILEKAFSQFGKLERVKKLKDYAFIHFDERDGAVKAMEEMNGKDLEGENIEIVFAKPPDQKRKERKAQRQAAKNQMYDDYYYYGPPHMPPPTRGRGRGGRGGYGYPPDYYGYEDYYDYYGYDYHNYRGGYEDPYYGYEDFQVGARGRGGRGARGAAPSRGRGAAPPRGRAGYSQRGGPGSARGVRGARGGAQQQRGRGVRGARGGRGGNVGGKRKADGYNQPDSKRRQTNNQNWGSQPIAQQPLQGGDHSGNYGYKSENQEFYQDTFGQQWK
UniProt Q9UNE7: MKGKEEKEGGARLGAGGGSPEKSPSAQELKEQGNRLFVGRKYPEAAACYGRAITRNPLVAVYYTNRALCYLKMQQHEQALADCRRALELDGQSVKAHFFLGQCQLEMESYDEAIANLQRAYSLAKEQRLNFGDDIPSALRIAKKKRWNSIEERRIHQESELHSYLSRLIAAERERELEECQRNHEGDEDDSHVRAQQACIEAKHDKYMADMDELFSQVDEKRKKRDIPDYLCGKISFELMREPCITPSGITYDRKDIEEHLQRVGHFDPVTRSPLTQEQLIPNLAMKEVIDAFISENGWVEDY

The list shows a part of the results.

Compound in this assay: C1CN(CCC1(CC2=CC=C(C=C2)Cl)N)C3=NC=NC4=C3C=CN4
The assay can be described thus: log2 fold change, soluble protein after heating vs DMSO (PISA); higher = thermal stabilisation; K562 cells, 10 uM, 30 min; active = over 0.2 and 3.5 SD of the protein, either way, in both replicates (recomputed). The gist of the method:
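K562 cells at 2×10^6 cells/mL were treated for 30 min with 10 μM compound, and aliquots were heated for 3 min over 48°C-58°C before pooling. Extraction used PBS with 0.5% NP-40 at 4°C, and soluble protein was the supernatant after 21,000xg for 90 min, measured by TMTpro 16plex LC-MS/MS with channel sums equalised. Thermal stability values, relative to control samples and from duplicates, are log2 fold changes.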
For the target SYNE1 (UniProt Q8NF91), the log2 fold change is inactive: 0.172.
In the case of STX17 (UniProt P56962), the log2 fold change is inactive: 0.027.
As for SUPT6H (UniProt Q7KZ85), the log2 fold change was inactive: -0.063.
For SYAP1 (UniProt Q96A49), the log2 fold change is inactive: 0.005.
With TAL1 (UniProt P17542) the figure was inactive: -0.007.
For SUPV3L1 (UniProt Q8IYB8), the log2 fold change was inactive: 0.016.
In the case of TBC1D10B (UniProt Q4KMP7), the log2 fold change is inactive: -0.033.
With TARBP2 (UniProt Q15633) the figure was inactive: -0.181; with TATDN3 isoform 3 (UniProt Q17R31), inactive: -0.042; with SVIP (UniProt Q8NHG7), inactive: 0.039.
Regarding STRIP1 (UniProt Q5VSL9), the log2 fold change was inactive: 0.049.
As to STK38 (UniProt Q15208), the log2 fold change is inactive: -0.05.
As for TACC1 isoform 2 (UniProt O75410), the log2 fold change was inactive: 0.006.
For the target SYNCRIP (UniProt O60506), the log2 fold change is inactive: -0.066.
Turning to STUB1 (UniProt Q9UNE7), the log2 fold change is inactive: -0.146.
